22 compounds from the supplement of paper PMC4635364 can be followed below.

Counter-ions that a name gives are not always drawn. The list shows a part of the results. Repeats in this data set agree poorly, so a single value says little.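 Human fetal ventral-midbrain neural progenitor line ReNCell VM, differentiated without mitogens. Images stained for doublecortin (early neurons) or tyrosine hydroxylase (dopaminergic neurons) were scored by blinded raters against untreated wells (0 = no change). Repeats and both raters were averaged, and compounds averaging 2 or higher were picked as hits for retesting.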

For assay [1], the system named is ReNCell VM. In words: neuronal differentiation score (DCX+ cell fraction vs untreated, manual image score) (score (-3 to 3)); higher = more neuronal differentiation. As to conditions: 2 uM, 2 weeks.
Assay [2] deals with ReNCell VM. The assay can be described thus: dopaminergic neuron differentiation score (TH+ cell fraction vs untreated, manual image score) (score (0 to 3)); higher = more TH+ dopaminergic neuron differentiation. As to conditions: 2 uM, 4 weeks, BDNF 10 ng/ml + GDNF 10 ng/ml.

Take `O=[N+]([O-])c1ccc(-c2nc(-c3ccc(F)cc3)c(-c3ccncc3)[nH]2)cc1`: the neuronal differentiation score in the assay on ReNCell VM [1] (library: LOPAC) was inactive: 0. In the assay with ReNCell VM [2] (library: LOPAC), the “dopaminergic neuron differentiation score” value is inactive: 0.

Consider `CCCCCCCCCCCCCCCC(=O)NCC(COP(=O)([O-])OCC[N+](C)(C)C)OCC` (racemic) [rac-2-Ethoxy-3-hexadecanamido-1-propylphosphocholine], for which, in the assay with ReNCell VM [1] (library: LOPAC), the neuronal differentiation score is inactive: 0. For the same compound, the “dopaminergic neuron differentiation score” value in the assay on ReNCell VM [2] (library: LOPAC) is inactive: 0.

Take `CC(Oc1c(Cl)cccc1Cl)C1=NCCN1` (centres undefined) [Lofexidine]: the neuronal differentiation score in the assay with ReNCell VM [1] (library: Prestwick) was inactive: 0. Also, in the assay with ReNCell VM [2] (library: Prestwick), the “dopaminergic neuron differentiation score” value was inactive: 0.

With `COc1ccc(Cc2cnc(N)nc2N)cc1OC`, in the assay on ReNCell VM [1] (library: Spectrum), the neuronal differentiation score was inactive: 1. Further, the “dopaminergic neuron differentiation score” value with ReNCell VM [2] (library: Spectrum) is inactive: 0.

In the case of `Nc1ccc(S(=O)(=O)Nc2ccnn2-c2ccccc2)cc1`, in the assay on ReNCell VM [1] (library: Spectrum), the neuronal differentiation score is inactive: 0. Also, in the assay on ReNCell VM [2] (library: Spectrum), the “dopaminergic neuron differentiation score” value is inactive: 0.

For the compound `COc1cc(O)c(C(C)=O)c(OC)c1`, in the assay with ReNCell VM [1] (library: Spectrum), the neuronal differentiation score is inactive: 0. Further, the “dopaminergic neuron differentiation score” value in the assay on ReNCell VM [2] (library: Spectrum) was inactive: 0.

`COc1c(CO)cc(CO)cc(CO)c1=O` [3,5,7-tris-hydroxymethyl-2-methoxy-cyclohepta-2,4,6-trienone]: the neuronal differentiation score in the assay with ReNCell VM [1] (library: Natural) is inactive: 0. Also, in the assay with ReNCell VM [2] (library: Natural), the “dopaminergic neuron differentiation score” value was inactive: 0.

With `O=C(O)CCc1nc2ccccc2[nH]1`, in the assay with ReNCell VM [1] (library: Spectrum), the neuronal differentiation score is inactive: 0. Moreover, the “dopaminergic neuron differentiation score” value in the assay with ReNCell VM [2] (library: Spectrum) was inactive: 0.

Consider `OC(c1cc(C(F)(F)F)nc2c(C(F)(F)F)cccc12)C1CCCCN1` (centres undefined), for which the neuronal differentiation score in the assay on ReNCell VM [1] (library: Spectrum) was inactive: 0. In the assay with ReNCell VM [2] (library: Spectrum), the “dopaminergic neuron differentiation score” value was inactive: 0.

On to `CCCC(=O)Nc1ncnc2c1ncn2[C@@H]1O[C@@H]2COP(=O)(O)O[C@H]2[C@H]1OC(=O)CCC`, for which, in the assay with ReNCell VM [1] (library: Spectrum), the neuronal differentiation score was inactive: 0. In addition, the “dopaminergic neuron differentiation score” value in the assay with ReNCell VM [2] (library: Spectrum) is inactive: 0.

Take `CC(=O)OCC(=O)[C@@]12OC(C)(C)O[C@@H]1C[C@H]1[C@@H]3C[C@H](F)C4=CC(=O)C=C[C@]4(C)[C@@]3(F)[C@@H](O)C[C@@]12C`: the neuronal differentiation score in the assay on ReNCell VM [1] (library: Spectrum) was inactive: 0. The “dopaminergic neuron differentiation score” value in the assay with ReNCell VM [2] (library: Spectrum) was inactive: 0.

On to `CC1C(=O)OC2C(O)C34C5CC(C(C)(C)C)C36C(OC(=O)C6O)OC4(C(=O)O5)C12O` (centres undefined) [Ginkgolide B], for which the neuronal differentiation score in the assay on ReNCell VM [1] (library: Tocriscreen) is inactive: 0. In addition, the “dopaminergic neuron differentiation score” value in the assay on ReNCell VM [2] (library: Tocriscreen) was inactive: 0.

Consider `NC(N)=NC(N)=Nc1cccc(Cl)c1` [m-Chlorophenylbiguanide hydrochloride], for which, in the assay with ReNCell VM [1] (library: Tocriscreen), the neuronal differentiation score is inactive: 0. Moreover, the “dopaminergic neuron differentiation score” value with ReNCell VM [2] (library: Tocriscreen) was inactive: 0.

In the case of `Cn1c(=O)c2nc[nH]c2n(C)c1=O` [Theophylline], in the assay on ReNCell VM [1] (library: LOPAC), the neuronal differentiation score is inactive: 0. Further, the “dopaminergic neuron differentiation score” value with ReNCell VM [2] (library: LOPAC) is inactive: 0.

As to `COc1c(C)c2c(c(O)c1C/C=C(\C)CCC(=O)O)C(=O)OC2`, the neuronal differentiation score in the assay with ReNCell VM [1] (library: Spectrum) is inactive: 0. The “dopaminergic neuron differentiation score” value in the assay with ReNCell VM [2] (library: Spectrum) was inactive: 0.

Take `N[C@@H](Cc1cc(I)c(Oc2ccc(O)c(I)c2)c(I)c1)C(=O)O` [LIOTHYRONINE (L- isomer) SODIUM]: in the assay with ReNCell VM [1] (library: Spectrum), the neuronal differentiation score is inactive: 0. Further, the “dopaminergic neuron differentiation score” value in the assay on ReNCell VM [2] (library: Spectrum) was inactive: 0.

Take `O=C(Nc1nc2ccccc2n1CCN1CCOCC1)c1cccc([N+](=O)[O-])c1` [IRAK-1/4 Inhibitor I]: the neuronal differentiation score in the assay with ReNCell VM [1] (library: LOPAC) was inactive: 0. Moreover, the “dopaminergic neuron differentiation score” value with ReNCell VM [2] (library: LOPAC) was inactive: 0.

On to `COc1c(O)cc(O)cc1O`, for which the neuronal differentiation score in the assay with ReNCell VM [1] (library: Spectrum) is inactive: 0. In the assay on ReNCell VM [2] (library: Spectrum), the “dopaminergic neuron differentiation score” value is inactive: 0.

Consider `CCCn1c(=O)c2[nH]c(C3CCCC3)nc2n(CCC)c1=O`, for which the neuronal differentiation score in the assay with ReNCell VM [1] (library: Tocriscreen) was inactive: 0. For the same compound, the “dopaminergic neuron differentiation score” value in the assay with ReNCell VM [2] (library: Tocriscreen) is inactive: 0.

On to `OCCN(CCO)c1nc(N2CCCCC2)c2nc(N(CCO)CCO)nc(N3CCCCC3)c2n1`, for which the neuronal differentiation score in the assay with ReNCell VM [1] (library: Spectrum) was inactive: 0. For the same compound, the “dopaminergic neuron differentiation score” value with ReNCell VM [2] (library: Spectrum) was inactive: 0.

Regarding `O=C(O)c1cccc(O)c1O`, the neuronal differentiation score with ReNCell VM [1] (library: Spectrum) was inactive: 0. The “dopaminergic neuron differentiation score” value in the assay with ReNCell VM [2] (library: Spectrum) is inactive: 0.

`CCSC(=N)N` [EIT hydrobromide]: the neuronal differentiation score with ReNCell VM [1] (library: Tocriscreen) was inactive: 0. In addition, the “dopaminergic neuron differentiation score” value in the assay with ReNCell VM [2] (library: Tocriscreen) is inactive: 0.
